Values of other authors in patent US12576020B2, “Increasing the stability of agents for the treatment of keratinous material” (Henkel AG & Co. KGaA, priority 2019, dated 2026).

Conditions: 25° C.

solubility in water: more than 20 % by weight
SMILES: CCN(Cc1cccc(S(=O)(=O)[O-])c1)c1ccc(C(=C2C=CC(=[N+](CC)Cc3cccc(S(=O)(=O)[O-])c3)C=C2)c2ccccc2S(=O)(=O)[O-])cc1.[Na+].[Na+] [Acid Blue 9]
